# Measured values as given in article PMC9487093.
# Amino acid sequences for entries named in this document (tags omitted).
# UniProt Q86VW2: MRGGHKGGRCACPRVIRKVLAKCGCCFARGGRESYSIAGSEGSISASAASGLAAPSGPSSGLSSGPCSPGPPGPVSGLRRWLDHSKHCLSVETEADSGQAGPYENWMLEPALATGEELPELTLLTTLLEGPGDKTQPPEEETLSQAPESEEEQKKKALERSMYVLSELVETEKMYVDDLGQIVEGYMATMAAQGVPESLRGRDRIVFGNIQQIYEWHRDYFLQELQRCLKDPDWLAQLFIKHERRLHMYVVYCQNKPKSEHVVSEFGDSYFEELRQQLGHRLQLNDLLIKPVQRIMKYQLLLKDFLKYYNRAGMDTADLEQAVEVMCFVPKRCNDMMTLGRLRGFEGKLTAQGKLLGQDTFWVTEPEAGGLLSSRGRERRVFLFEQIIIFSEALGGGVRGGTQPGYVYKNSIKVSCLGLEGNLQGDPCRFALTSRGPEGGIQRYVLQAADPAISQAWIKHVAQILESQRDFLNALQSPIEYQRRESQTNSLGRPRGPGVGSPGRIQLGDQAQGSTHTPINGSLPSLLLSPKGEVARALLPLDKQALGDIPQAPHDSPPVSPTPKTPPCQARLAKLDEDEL
# UniProt Q07157: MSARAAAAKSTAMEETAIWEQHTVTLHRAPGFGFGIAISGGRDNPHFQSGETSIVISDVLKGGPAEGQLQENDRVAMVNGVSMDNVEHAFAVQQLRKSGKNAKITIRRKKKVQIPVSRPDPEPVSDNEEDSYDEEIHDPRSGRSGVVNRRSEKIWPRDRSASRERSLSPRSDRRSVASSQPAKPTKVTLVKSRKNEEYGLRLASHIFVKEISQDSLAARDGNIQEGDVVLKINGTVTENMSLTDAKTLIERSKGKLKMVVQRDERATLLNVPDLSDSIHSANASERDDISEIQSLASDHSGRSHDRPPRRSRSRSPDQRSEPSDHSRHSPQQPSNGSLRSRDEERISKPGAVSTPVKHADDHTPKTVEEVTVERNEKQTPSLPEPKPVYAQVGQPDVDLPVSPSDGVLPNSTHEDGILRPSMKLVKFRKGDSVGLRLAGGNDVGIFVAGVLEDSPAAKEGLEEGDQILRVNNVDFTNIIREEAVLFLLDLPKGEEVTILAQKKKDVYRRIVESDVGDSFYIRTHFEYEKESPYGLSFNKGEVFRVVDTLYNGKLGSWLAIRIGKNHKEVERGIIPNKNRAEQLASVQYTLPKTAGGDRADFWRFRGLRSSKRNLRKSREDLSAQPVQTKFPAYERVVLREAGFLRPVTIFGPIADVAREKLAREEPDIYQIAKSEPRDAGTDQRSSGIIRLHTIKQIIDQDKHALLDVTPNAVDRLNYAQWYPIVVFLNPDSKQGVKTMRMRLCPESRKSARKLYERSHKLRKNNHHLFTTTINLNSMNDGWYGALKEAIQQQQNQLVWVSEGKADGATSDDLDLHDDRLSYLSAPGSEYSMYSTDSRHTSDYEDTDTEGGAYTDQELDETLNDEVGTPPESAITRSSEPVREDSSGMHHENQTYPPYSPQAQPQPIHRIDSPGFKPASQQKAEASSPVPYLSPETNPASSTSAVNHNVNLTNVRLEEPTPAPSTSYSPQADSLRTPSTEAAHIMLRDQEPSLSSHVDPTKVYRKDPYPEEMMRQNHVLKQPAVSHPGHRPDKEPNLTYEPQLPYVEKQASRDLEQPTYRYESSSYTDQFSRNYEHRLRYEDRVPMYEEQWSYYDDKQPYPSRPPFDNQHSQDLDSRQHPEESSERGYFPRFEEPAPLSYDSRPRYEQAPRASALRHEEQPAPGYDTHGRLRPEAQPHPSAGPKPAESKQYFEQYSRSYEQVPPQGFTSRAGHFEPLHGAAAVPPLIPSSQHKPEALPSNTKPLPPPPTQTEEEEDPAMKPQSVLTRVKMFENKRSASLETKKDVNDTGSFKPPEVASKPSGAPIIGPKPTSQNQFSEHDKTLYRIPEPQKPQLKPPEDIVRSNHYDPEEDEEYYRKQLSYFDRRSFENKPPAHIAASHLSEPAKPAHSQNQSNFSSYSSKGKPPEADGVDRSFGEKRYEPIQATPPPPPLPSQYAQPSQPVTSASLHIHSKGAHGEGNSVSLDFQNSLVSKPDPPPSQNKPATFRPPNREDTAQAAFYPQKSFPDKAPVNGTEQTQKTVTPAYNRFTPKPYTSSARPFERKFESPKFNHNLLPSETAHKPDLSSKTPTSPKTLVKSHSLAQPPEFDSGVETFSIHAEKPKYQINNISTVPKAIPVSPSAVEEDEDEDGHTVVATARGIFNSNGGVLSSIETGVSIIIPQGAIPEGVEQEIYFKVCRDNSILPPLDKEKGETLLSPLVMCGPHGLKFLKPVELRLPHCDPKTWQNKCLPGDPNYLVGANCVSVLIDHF
# No constants are given. Whether binding was seen depends on the method and setting. In cells and extracts the contact can be indirect. Some binding calls cover weakened binding; strength is not graded here.
# Molecular target: T1, blood vessel epicardial substance (BVES) (human (endogenous in Huh7)) (UniProt Q8NE79)
# T1 sequence: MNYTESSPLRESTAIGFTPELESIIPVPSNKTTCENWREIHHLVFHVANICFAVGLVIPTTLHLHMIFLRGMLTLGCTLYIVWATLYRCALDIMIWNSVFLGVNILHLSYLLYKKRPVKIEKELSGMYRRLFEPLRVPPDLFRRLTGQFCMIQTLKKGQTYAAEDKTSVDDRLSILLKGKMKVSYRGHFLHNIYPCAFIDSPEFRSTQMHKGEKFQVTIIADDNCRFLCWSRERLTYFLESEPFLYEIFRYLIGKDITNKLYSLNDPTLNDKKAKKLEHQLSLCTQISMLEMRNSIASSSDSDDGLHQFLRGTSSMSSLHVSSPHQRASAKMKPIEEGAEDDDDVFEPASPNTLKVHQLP
# Assay: co-IP; BVES immunoprecipitated from NP-40 lysate of Huh7 cells with anti-BVES antibody and Protein A/G agarose beads, overnight at 4 °C, washed four times with lysis buffer; western blots for ZO-1 and GEFT; normal mouse IgG as negative control
row,binding,Substance
1,binds,GEFT (from UniProt Q86VW2 1-580)
2,binds,zonula occludens-1 (ZO-1) (from UniProt Q07157 1-1748)
